“And” between values parts separate entries of the source, which are not always exact repeats. Identical values can stand only once.
System: extracellular levels of acetylcholine in medial prefrontal cortex
Test: Acetylcholine modulation in medial prefrontal cortex (microdialysis)
Assay type: in vivo, male Wistar rats
Settings: donepezil alone, 1 mg/kg, s.c., mPFC dialysate
Source text: Male Wistar rats (240-300 g body weight) were stereotaxically implanted with a microdialysis guide cannula in medial prefrontal cortex (mPFC; AP: +3.2 mm, ML: −0.5 mm, DV: −3.0 mm) under isoflurane anesthesia. Co-ordinates were taken according to atlas for the rat brain (Paxinos and Watson 2004) with reference points taken from bregma and vertical from the skull. The rats were allowed to recover individually for four days in a round bottom Plexiglas bowl with free access to feed and water.
After surgical recovery of 4 days, male Wistar rats were connected to dual quartz lined two-channel liquid swivel (Instech, UK) on a counter balance lever arm, which allowed unrestricted movements of the animal. Sixteen hours before start of the study, a pre-equilibrated microdialysis probe (2 mm dialysis membrane) was inserted into mPFC through the guide cannula. On the day of study, probe was perfused with artificial cerebrospinal fluid (aCSF; NaCl 147 mM, KCl2.7 mM, MgCl2 1 mM, CaCl2. 2H2O 1.2 mM, pH 7.4) at a flow rate of 1.5 μL/min and a stabilization period of 2 h was maintained. Five basal samples were collected at 20 min intervals prior to the treatment of test Compounds (3 or 10 mg/kg, p.o.) or vehicle. […] Dialysate samples were collected for an additional period of 4 h post treatment of test compounds. […]
Acetylcholine concentrations in dialysates were quantified using LC-MS/MS based method. […]

COc1cc2c(cc1OC)C(=O)C(CC1CCN(Cc3ccccc3)CC1)C2 (stereo not shown) [donepezil, reference compound]
maximum cortical acetylcholine levels, % of basal levels: 933±74 % of basal levels and 1459±146 % of basal levels and 1170±161 % of basal levels
